Experimental data reported in publication PMC9631052.
No constants are given. Whether binding was seen depends on the method and setting. For some of these results: In cells and extracts the contact can be indirect. Some entries that bind do so weakly or less than the wild type. For some of these results: Sequences can lack the tags named with a protein. One block for each substance: values may come before it.

Protein sequences, listed by entry. Tags and fused reporters are not part of them. Residues count along the entry.
UniProt O00401: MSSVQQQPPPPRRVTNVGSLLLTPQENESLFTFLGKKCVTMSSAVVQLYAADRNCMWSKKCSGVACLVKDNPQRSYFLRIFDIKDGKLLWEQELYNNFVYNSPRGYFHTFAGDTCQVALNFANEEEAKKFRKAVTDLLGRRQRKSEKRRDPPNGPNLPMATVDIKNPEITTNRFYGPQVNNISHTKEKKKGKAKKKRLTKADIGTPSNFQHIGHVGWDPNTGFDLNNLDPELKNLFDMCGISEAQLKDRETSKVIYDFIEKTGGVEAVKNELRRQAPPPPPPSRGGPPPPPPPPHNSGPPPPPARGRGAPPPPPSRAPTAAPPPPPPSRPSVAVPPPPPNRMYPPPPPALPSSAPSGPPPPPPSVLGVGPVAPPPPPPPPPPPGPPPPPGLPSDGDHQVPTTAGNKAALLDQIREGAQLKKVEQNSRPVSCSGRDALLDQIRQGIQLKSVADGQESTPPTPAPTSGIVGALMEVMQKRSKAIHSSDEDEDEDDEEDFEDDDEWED
UniProt O43516: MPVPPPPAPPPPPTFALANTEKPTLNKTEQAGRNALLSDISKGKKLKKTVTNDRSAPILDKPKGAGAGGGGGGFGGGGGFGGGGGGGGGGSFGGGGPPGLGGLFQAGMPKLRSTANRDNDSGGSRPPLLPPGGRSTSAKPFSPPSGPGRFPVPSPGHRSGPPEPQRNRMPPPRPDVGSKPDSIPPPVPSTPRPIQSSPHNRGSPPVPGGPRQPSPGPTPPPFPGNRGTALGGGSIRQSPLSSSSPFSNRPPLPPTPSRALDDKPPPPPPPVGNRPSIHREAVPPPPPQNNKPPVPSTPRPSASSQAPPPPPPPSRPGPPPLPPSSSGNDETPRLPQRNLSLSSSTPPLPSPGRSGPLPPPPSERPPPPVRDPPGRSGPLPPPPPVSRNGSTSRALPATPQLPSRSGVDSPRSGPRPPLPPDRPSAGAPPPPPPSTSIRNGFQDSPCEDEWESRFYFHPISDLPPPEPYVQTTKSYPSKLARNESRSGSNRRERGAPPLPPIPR
UniProt P06756, residues 31-1048: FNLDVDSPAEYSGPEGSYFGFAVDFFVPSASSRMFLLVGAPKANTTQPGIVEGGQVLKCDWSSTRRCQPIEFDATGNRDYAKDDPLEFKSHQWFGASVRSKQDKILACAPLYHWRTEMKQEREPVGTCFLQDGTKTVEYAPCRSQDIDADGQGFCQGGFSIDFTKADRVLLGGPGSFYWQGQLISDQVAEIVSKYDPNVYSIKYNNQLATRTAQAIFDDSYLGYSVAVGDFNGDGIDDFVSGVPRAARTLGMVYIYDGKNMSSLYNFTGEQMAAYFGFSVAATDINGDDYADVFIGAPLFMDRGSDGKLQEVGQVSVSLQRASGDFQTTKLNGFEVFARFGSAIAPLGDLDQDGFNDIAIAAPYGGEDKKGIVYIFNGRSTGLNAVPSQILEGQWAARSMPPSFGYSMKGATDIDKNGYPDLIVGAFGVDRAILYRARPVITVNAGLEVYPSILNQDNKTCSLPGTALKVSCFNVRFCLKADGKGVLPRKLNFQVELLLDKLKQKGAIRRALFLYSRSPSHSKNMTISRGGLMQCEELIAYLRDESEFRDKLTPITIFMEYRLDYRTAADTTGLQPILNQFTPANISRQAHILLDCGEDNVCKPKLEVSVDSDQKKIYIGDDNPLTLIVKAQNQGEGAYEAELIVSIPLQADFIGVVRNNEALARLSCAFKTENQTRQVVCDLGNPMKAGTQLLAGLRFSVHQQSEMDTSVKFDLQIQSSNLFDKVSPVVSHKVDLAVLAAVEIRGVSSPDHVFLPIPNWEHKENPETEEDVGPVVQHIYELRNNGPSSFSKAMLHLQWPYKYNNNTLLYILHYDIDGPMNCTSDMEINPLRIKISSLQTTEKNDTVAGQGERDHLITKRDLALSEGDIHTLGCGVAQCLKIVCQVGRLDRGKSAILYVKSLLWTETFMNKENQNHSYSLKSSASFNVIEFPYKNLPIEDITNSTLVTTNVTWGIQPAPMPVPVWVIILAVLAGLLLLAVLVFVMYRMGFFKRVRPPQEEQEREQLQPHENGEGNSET

Tests used:
[1] = molecular target: T1, VAMP‐associated protein A (human (endogenous in HCCLM3‐BM4)) (UniProt Q9P0L0); assay: co-IP; anti‐VAPA antibody (anti‐IgG as control), membrane of pre‐osteoclasts treated with LOs derived from HCCLM3‐BM4 cells; also with ARP2 or ARP3 knocked down (Figure 5A, 5D)
T1 sequence: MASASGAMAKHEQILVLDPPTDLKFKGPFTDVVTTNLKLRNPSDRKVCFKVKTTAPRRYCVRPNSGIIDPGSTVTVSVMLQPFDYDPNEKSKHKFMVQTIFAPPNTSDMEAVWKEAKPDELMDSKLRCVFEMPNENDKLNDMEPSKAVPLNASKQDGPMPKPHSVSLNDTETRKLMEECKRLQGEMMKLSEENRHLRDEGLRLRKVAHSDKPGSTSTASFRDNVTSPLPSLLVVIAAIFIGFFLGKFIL

[2] = molecular target: T2, VAPA immunoprecipitated with anti‐myc antibody (UniProt Q9P0L0); assay: far-Western, overlay or dot blot; anti‐myc antibody‐immunoprecipitated proteins on the blot, detected with anti‐N‐WASP antibody, re‐blotted with anti‐VAPA antibody; recombinant N‐WASP as control (Figure 5C)
T2 sequence: T1 sequence

Recombinant N‐WASP = Recombinant N‐WASP (UniProt O00401); assay: pull-down; in vitro; anti‐N‐WASP antibody in 'the indicated system' with VAPA, WIP and N‐WASP; the legend calls it in vitro co‐IP (Figure 6C)
[3] = molecular target: T3, VAPA (construct and source not stated) (UniProt Q9P0L0); assay: co-IP; serially truncated N‐WASP fragments (anti‐VAPA antibody, Figure 5F) and VAPA fragments (anti‐N‐WASP antibody, Figure 5G) in the indicated cells
T3 sequence: T1 sequence

[4] = molecular target: T3, VAPA (construct and source not stated); assay: far-Western, overlay or dot blot; far‐western blotting of VAPA and αV‐integrin (Figure S2B); format not shown
[5] = molecular target: T3, VAPA (construct and source not stated); assay: co-IP; serially truncated VAPA fragments and αV‐integrin (Figure S2D); cells not shown
[6] = molecular target: neural Wiskott–Aldrich syndrome protein (human (endogenous in pre‐osteoclasts)) (UniProt O00401); assay: co-IP; anti‐N‐WASP antibody, membrane of pre‐osteoclasts treated with LOs derived from Hep3B/vector or Hep3B/Flag‐VAPA cells (Hep3B transfected with 0, 1, 2 and 10 µg Flag‐VAPA plasmids) (Figure 6B, 6J)

Substance: Recombinant N‐WASP (from UniProt O00401 1-505)
binding [2]: binds

Substance: WIP (in vitro system) (from UniProt O43516 1-503)
binding (Recombinant N‐WASP): binds

Substance: αV‐integrin (construct and source not stated) (from UniProt P06756 31-1048)
binding [4]: binds
binding [5]: binds

Continued, values first:

binding [1]: binds
Substance: neural Wiskott–Aldrich syndrome protein (from UniProt O00401 1-505)

binding [3]: binds
Substance: N‐WASP (parent of the serially truncated N‐WASP fragments; construct not stated) (from UniProt O00401 1-505)

binding [6]: binds
Substance: WASP‐interacting protein (from UniProt O43516 1-503)
